From PubChem BioAssay (NCATS)
The inconclusive results got no clear call from the source; some entries with a clear call stand among them for comparison. Potencies beside an inconclusive call are fits to weak or partial responses and may not hold up. Calls of active or inactive are those of the source. Calls follow the shape of the dose curve; as a rule, active = well fitted curve in the direction sought with a large enough effect; inconclusive = small, poorly fitted or top-dose-only effect, or another doubt; inactive = no such curve, though single readings can be large; an effect the other way counts as inactive or inconclusive.

By UniProt entry, the sequences of proteins in these tests, tags left out. Where a name states a change or a piece, a line headed by the entry shows the natural chain unless it says otherwise.
UniProt Q9UBT6: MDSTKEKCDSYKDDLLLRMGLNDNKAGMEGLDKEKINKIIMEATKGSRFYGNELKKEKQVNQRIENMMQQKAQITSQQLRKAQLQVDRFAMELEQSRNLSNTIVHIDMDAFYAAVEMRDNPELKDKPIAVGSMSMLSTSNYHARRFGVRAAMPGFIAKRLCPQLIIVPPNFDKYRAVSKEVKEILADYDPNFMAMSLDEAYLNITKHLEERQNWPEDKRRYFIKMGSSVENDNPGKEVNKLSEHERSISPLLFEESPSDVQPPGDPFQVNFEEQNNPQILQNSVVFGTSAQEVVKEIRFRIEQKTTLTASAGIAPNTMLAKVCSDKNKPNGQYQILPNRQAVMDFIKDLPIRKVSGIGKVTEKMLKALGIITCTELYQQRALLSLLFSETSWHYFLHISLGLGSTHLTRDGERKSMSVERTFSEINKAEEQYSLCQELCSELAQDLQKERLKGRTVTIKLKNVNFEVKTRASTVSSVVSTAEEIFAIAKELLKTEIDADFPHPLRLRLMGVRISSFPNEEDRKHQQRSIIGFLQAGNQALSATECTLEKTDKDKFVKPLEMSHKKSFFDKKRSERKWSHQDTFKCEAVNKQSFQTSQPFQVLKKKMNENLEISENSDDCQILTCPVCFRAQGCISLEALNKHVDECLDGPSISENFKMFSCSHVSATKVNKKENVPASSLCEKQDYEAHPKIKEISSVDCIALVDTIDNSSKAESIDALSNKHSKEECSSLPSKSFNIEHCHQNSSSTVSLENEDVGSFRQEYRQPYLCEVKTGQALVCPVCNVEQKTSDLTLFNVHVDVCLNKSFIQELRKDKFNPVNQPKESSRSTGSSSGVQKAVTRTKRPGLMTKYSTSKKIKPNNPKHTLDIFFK

Tested on: not listed separately
Assay: qHTS for Inhibitors of WRN Helicase: Thiazole Orange DNA Binding Counterscreen (AID 720499);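 also: drop in dye fluorescence marks compound binding to DNA; nearly all actives have a fitted effect of over 60% in size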; as to activity change, negative = inhibition: % is scaled to controls: 0 for no effect and ±100 for the full control effect
Conditions: thiazole orange DNA binding displacement, fluorescence; series mostly up to 57.1 µM; activity change, negative = inhibition: at the top concentration
Procedure, shortened: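 Compounds were pin-transferred into 50 nM unlabeled DNA premixed with 100 nM thiazole orange. After 15 min at room temperature, fluorescence (ex 480 nm, em 530 nm) was read; loss of signal flags dye displacement from nonspecific DNA binders.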
Potency is read from the fitted curve at half-maximal effect.

| Structure (SMILES) | Potency | activity change, negative = inhibition |
| --- | --- | --- |
| O=C1OC(c2cccs2)=N/C1=C/c1ccc(-c2cccc(C(=O)O)c2)o1 | inconclusive: 24.1 µM [inhibitor, partial curve] |  |
| CC(C)Cc1ccc(C(C)/C=C2/CCC(CN3CCCCC3)C2=O)cc1 (stereo not given) |  | inactive: -5.92% |
| CN(C)CCNc1ccc(CO)c2sc3ccc(O)cc3c(=O)c12 | active: 21.5 µM |  |
| COC(=O)c1ccc(CCc2cc(O)c(Br)cc2O)cc1 |  | inactive: -10.9% |
| C/C(=N/NC(=O)c1cc2ccccc2cc1O)C1C(=O)c2ccccc2C1=O | active: 3.41 µM |  |
| CC(C)N1CCc2c(sc(NC(=O)c3cc4cc([N+](=O)[O-])ccc4s3)c2C(N)=O)C1 | active: 17.1 µM |  |
| O=C(O)CC(C(=O)O)N1C(=O)/C(=C/C=C/c2ccco2)SC1=S (stereo not given) | active: 3.83 µM |  |
| O=C(NN1C(=O)/C(=C/C=C/c2ccco2)SC1=S)c1ccccc1O | inconclusive: 27.1 µM [inhibitor, partial curve] |  |
| COc1ccc(OC)c(NC(=O)COC(=O)c2cc3c(s2)CCC3)c1 | inconclusive: 27.1 µM [inhibitor, partial curve] |  |
| O=C(COC(=O)c1ccccc1)Nc1ncc([N+](=O)[O-])s1 | active: 24.1 µM |  |
| Oc1ccc(O)c(Cc2nc3ccccc3[nH]2)c1 | inconclusive: 34.1 µM [inhibitor, single point] |  |
| O=C(COc1ccc(/C=N/NC(=O)c2ccccc2O)cc1)Nc1ccc([N+](=O)[O-])cc1 | inconclusive: 5.41 µM [inhibitor, full curve] |  |
| COc1ccc(OC)c(/C=N/c2oc(-c3ccco3)c(-c3ccco3)c2C#N)c1 | inconclusive: 21.5 µM [inhibitor, partial curve] |  |
| Oc1ccc(Nc2ccc3ccccc3c2)cc1 | inconclusive: 17.1 µM [inhibitor, partial curve] |  |
| COc1cc(/C=C2\CCc3c2nc2ccccc2c3C(=O)O)cc(OC)c1OC | inconclusive: 21.5 µM [inhibitor, partial curve] |  |
| N#CNC(=O)c1ccc(-n2cccc2/C=C2\NC(=O)N(CC(=O)Nc3ccc(Cl)cc3)C2=O)cc1 | inconclusive: 13.6 µM [inhibitor, partial curve] |  |
| CCSc1nnc(NC(=O)CSc2sc3c(O)cc(=O)[nH]c3c2C#N)s1 | inconclusive: 19.2 µM [inhibitor, partial curve] |  |
| N=C1S/C(=C\c2ccc(-c3cccc(Cl)c3)o2)C(=O)N1c1nccs1 | active: 17.1 µM |  |
| COc1cc(/C=C2\CC/C(=C\c3cc(OC)c(O)c(OC)c3)C2=O)cc(OC)c1O | active: 6.07 µM |  |

Molecular target: DNA polymerase kappa (Homo sapiens) (UniProt Q9UBT6)
Assay: qHTS for Inhibitors of Polymerase Kappa: Confirmatory Assay for Cherry-picked Compounds (AID 720501)
Conditions: purified Pol-kappa, fluorescent strand-displacement substrate
Procedure, shortened: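 Human Pol-kappa, dispensed at 10 nM, was preincubated with compounds for 15 min at room temperature. Reactions were started with primer/template substrate (50 nM final) carrying a TAMRA reporter strand and BHQ-2-quenched template, and fluorescence (ex 525/em 598 nm) was read at 0 and 10 min.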

| Structure (SMILES) | Potency |
| --- | --- |
| O=C(O)c1cc(C(=O)O)cc(N2C(=O)CSC2=S)c1 | inconclusive: 10.6 µM [inhibitor, full curve, poor fit] |
| O=C(CCN1C(=O)/C(=C/c2ccc3c(c2)OCO3)SC1=S)Nc1cccc(C(=O)O)c1 | inconclusive: 59.7 µM [inhibitor, partial curve] |
| COc1cccc(/C=C(\C#N)c2nc3ccc(C)cc3[nH]2)c1 | inconclusive: 75.2 µM [inhibitor, partial curve] |
| Cc1ccc2nc(/C(C#N)=C/c3ccc(-c4ccccc4C(=O)O)o3)[nH]c2c1 | inconclusive: 67 µM [inhibitor, partial curve] |
| Cc1noc(NS(=O)(=O)c2ccc(NC(=O)c3ccc(Br)cc3)cc2)c1C | active: 8.44 µM |
| Cc1ccc(S(=O)(=O)/N=C2/NC(=O)/C(=C/c3cc([N+](=O)[O-])ccc3O)S2)cc1 | inconclusive: 37.7 µM [inhibitor, full curve, poor fit] |
| CCN(CC)c1ccc(NC(=O)CCS(=O)(=O)c2ccc(Br)cc2)c(C)c1 | active: 7.52 µM |
| CC(=O)c1ccc(NC(=O)Nc2ccc3snnc3c2)cc1 | inconclusive: 47.4 µM [inhibitor, partial curve] |
| O=C1NC(=S)S/C1=C\c1cc(Cl)ccc1Cl | inconclusive: 84.4 µM [inhibitor, single point] |
| Cc1ccc(C(=O)c2coc3cc([N+](=O)[O-])c(O)c([N+](=O)[O-])c23)cc1 | inconclusive: 37.7 µM [inhibitor, full curve] |
| Cc1c(CCC(=O)NCCCCCC(=O)O)c(=O)oc2cc3occ(-c4ccccc4)c3cc12 | inconclusive: 67 µM [inhibitor, partial curve] |
| O=C(N=Nc1c(O)[nH]c2ccc([N+](=O)[O-])cc12)c1cc(-c2ccccc2Cl)nc2ccccc12 | inconclusive: 5.32 µM [inhibitor, full curve, poor fit] |
| O=C(Cc1ccc(S(=O)(=O)N2CCOCC2)s1)Nc1nc2c(s1)CCCC2 | active: 21.2 µM |
| Nc1ccc(C(=O)Nc2ccc3c(O)cc(S(=O)(=O)O)cc3c2)cc1 | inconclusive: 33.6 µM [inhibitor, partial curve] |
| O=C(O)CCNc1cc(N2CCN(C(=O)c3ccco3)CC2)c2noc3c2c1C(=O)c1ccccc1-3 | inconclusive: 1.89 µM [inhibitor, full curve, poor fit] |
| COc1cc(/C=C/c2[nH]c(=O)[nH]c(=O)c2[N+](=O)[O-])cc([N+](=O)[O-])c1O | inconclusive: 21.2 µM [inhibitor, full curve] |
| COc1cc(/C=C2\SC(=S)N(Nc3ncc(C(F)(F)F)cc3Cl)C2=O)ccc1O | inconclusive: 84.4 µM [inhibitor, partial curve, poor fit] |
| N=C1S/C(=C\c2ccc(-c3ccccc3C(=O)O)o2)C(=O)N1c1ccc2c(c1)OCO2 | active: 18.9 µM |
| COc1ccc(OCCCC(=O)OCC(=O)Nc2ncc(Cl)cc2Cl)cc1 | inconclusive: 23.8 µM [inhibitor, full curve] |
| Cc1ccc2c(c1)c(=O)c1ccccc1n2CCCC(=O)Nc1ccc(Cl)cc1C | inconclusive: 75.2 µM [inhibitor, partial curve, poor fit] |
| CCOc1ccc(C(=O)c2cn(CC(=O)Nc3cc(OC)cc(OC)c3)c3ccc(F)cc3c2=O)cc1 | inconclusive: 37.7 µM [inhibitor, partial curve] |

Three records picked at random from those above:

| Structure (SMILES) | Potency |
| --- | --- |
| Nc1ccc(C(=O)Nc2ccc3c(O)cc(S(=O)(=O)O)cc3c2)cc1 | inconclusive: 33.6 µM [inhibitor, partial curve] |
| O=C(Cc1ccc(S(=O)(=O)N2CCOCC2)s1)Nc1nc2c(s1)CCCC2 | active: 21.2 µM |
| N=C1S/C(=C\c2ccc(-c3ccccc3C(=O)O)o2)C(=O)N1c1ccc2c(c1)OCO2 | active: 18.9 µM |
